# Experimental data reported in PMC9112550, “Optimization of the antimicrobial peptide Bac7 by deep mutational scanning” (BMC Biology, 2022).
# Tested on: E. coli TOP10
# Test: Deep mutational scanning, epPCR (randomly mutagenized) Bac7_1-23 library, intracellular self-screening with NGS
# Assay type: cell-based
# Conditions: epPCR library, 601,551 variants; rank 1 = most active; qualitative measure
sequence,measurement,value
RRIGPRPPRLPRSRLRPLPLPRP [epPCR library peptide ID 116736],Rank by antimicrobial activity,3
